About 18,000 (4.4%) of roughly 410,000 compounds were called active. Inconclusive results, whose numbers are uncertain, are shown with a selection of clear calls. No stated cut-off is given here; in the data, active means activity change below about -60%; inconclusive means no clear call, values can overlap the other calls; inactive means above about -39%.
Experiment: qHTS Assay for inhibitors of the human cytomegalovirus (HCMV)
Conditions: HFF cells, HCMV-luciferase reporter, 72 h; at 57.5 µM; active compounds read low
How it was run: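 Human foreskin fibroblasts infected with luciferase-reporter HCMV at MOI 1 PFU/cell, compounds at two doses. Luciferase measured 72 h post infection; normalized to buffer-only basal and Salinomycin (10uM) controls.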
For `O=C(N/N=C\c1cccc(F)c1)c1ccc(-c2ccccc2)cc1`, the activity change, negative = inhibition was inactive: -33.4%.
For `C=CCOC(=O)C1=C[C@H](c2csc3ccccc23)[C@@H](CCCO)[C@H](OCC)O1`, the activity change, negative = inhibition was inactive: 8.16%.
In the case of `Cc1c(C(=O)N2CCCC2)oc2c1-c1nn(CC(=O)NCc3ccc(OC(C)C)cc3)cc1CC2`, the activity change, negative = inhibition is reported as active: -68.3%.
In the case of `COc1ccc(S(=O)(=O)N2CCN(c3ncccn3)CC2)cc1OC`, the activity change, negative = inhibition is reported as inactive: -4.1%.
With `Cc1c(C)c(C)c(S(=O)(=O)NCCC(=O)N2CCN(Cc3ccc(C#N)cc3)CC2)c(C)c1C` the activity change, negative = inhibition was inactive: -26.7%.
For `CCCCc1cc(=O)oc2c3c(cc(OCC(=O)NCCCO)c12)OC(C)(C)CC3`, the activity change, negative = inhibition was inactive: 47.5%.
In the case of `O=C(Nc1cc(Sc2ccccn2)cc([N+](=O)[O-])c1)c1cccc(F)c1`, the activity change, negative = inhibition is reported as active: -67.3%.
In the case of `CCCCOc1ccc(-n2nc(C)cc2C)nn1`, the activity change, negative = inhibition is reported as active: -82.4%.
In the case of `CC(C)n1c(NCc2ccc(Cl)cc2)nc2ccccc21`, the activity change, negative = inhibition is reported as inconclusive: -47.6%.
With `O=S(=O)(Nc1ccc2c(c1)OCCO2)c1ccc2oc3ccccc3c2c1` the activity change, negative = inhibition was inconclusive: -40.7%.
For `O=C(Nc1nc2ccccc2[nH]1)c1ccc(F)c(S(=O)(=O)N2CCOCC2)c1`, the activity change, negative = inhibition was inactive: 9.24%.
In the case of `COc1ccc(NC(=O)CSc2nc3ccccc3nc2N2CCOCC2)c(OC)c1`, the activity change, negative = inhibition is reported as inconclusive: -58.1%.
With `CC(C)C(NC(=O)C1CCCCC1)C(=O)NCCc1ccccc1` (stereo not drawn) the activity change, negative = inhibition was inconclusive: -46.1%.
With `Cn1nnnc1NN=Cc1ccccc1` the activity change, negative = inhibition was inactive: -31.5%.
In the case of `COC(=O)c1ccc(OC(=O)CCS(=O)(=O)c2ccc(C)cc2)cc1`, the activity change, negative = inhibition is reported as inactive: -32.6%.
With `CCN(CC(=O)NC1CC1)S(=O)(=O)c1ccc(C)cc1` the activity change, negative = inhibition was inconclusive: -56.9%.
For `Cn1c(=O)c2cc(C(=O)NCCCN3CCN(c4ccc(F)cc4)CC3)sc2c2ccccc21`, the activity change, negative = inhibition was inactive: 21.1%.
In the case of `COCCCNC(=O)c1c(NC(=O)Cc2coc3cc(C)ccc23)sc2c1CCCC2`, the activity change, negative = inhibition is reported as inconclusive: -55.8%.
With `COc1ccccc1/C=C1\SC(=S)N(CCC(=O)N2CCN(C)CC2)C1=O` the activity change, negative = inhibition was inconclusive: -58.8%.
For `CCC(Sc1nc2cc3c(cc2c(=O)n1Cc1ccco1)OCO3)C(=O)Nc1ccccc1OC` (stereo not drawn), the activity change, negative = inhibition was inconclusive: -48.2%.
With `COc1ccccc1N1CCN(c2nc(N)c(C#N)c(CC#N)c2C#N)CC1` the activity change, negative = inhibition was inactive: -3.96%.
In the case of `Cc1ccc(C)c(N2CCN(CCN3CCCCC3)CC2)c1`, the activity change, negative = inhibition is reported as inactive: 5.15%.
For `COc1ccccc1CNS(=O)(=O)c1ccc(Cl)s1`, the activity change, negative = inhibition was inconclusive: -45.6%.
With `CC1CCN(C(=O)Cn2cc(SCC(=O)NCc3ccc(F)cc3)c3ccccc32)CC1` the activity change, negative = inhibition was inconclusive: -51.2%.
With `O=C(CCn1c(=O)oc2cc(Cl)ccc21)Nc1ccc(O)cc1` the activity change, negative = inhibition was inactive: -13.7%.
For `O=C1COc2ccc(S(=O)(=O)N3CCc4ccccc43)cc2N1`, the activity change, negative = inhibition was inconclusive: -42.8%.
In the case of `Cc1oc(-c2ccccc2)nc1C(=O)N1CCN(c2ccc(F)cc2)CC1`, the activity change, negative = inhibition is reported as inconclusive: -52%.
In the case of `COc1ccc(C(=O)/C=C/Sc2nc3ccccc3o2)cc1`, the activity change, negative = inhibition is reported as active: -105%.
With `Cc1cc(C)cc(NC(=S)NCCCO)c1` the activity change, negative = inhibition was inconclusive: -57.8%.
With `O=C(O)c1cccc(NC(=O)c2ccc(S(=O)(=O)c3ccccc3)cc2)c1` the activity change, negative = inhibition was inactive: 21.4%.
For `COc1ccc(NC(=O)C2Cc3c(-c4ccc5c(c4)OCO5)ccnc3O2)cc1` (stereo not drawn), the activity change, negative = inhibition was inconclusive: -44.2%.
For `O=C(CCCCn1cnc2c(=S)nc[nH]c21)Nc1ccc(C(=O)O)cc1`, the activity change, negative = inhibition was inactive: -5.76%.
For `C#CCOCCOCCOCCNc1nc(N2CCN(C(=O)CCCCCCCCCCNC(=O)[C@@H](CCC(=O)O)n3cc(CCCCCN)nn3)CC2)nc(N2CCN(C(=O)CCCCCCCCCCNC(=O)[C@@H](CCC(=O)O)n3cc(CCCCCN)nn3)CC2)n1`, the activity change, negative = inhibition was inconclusive: -44.5%.
With `CCN1/C(=C\c2ccc3ccccc3[n+]2CC)Sc2cc(C)ccc21` the activity change, negative = inhibition was active: -99.8%.
In the case of `COc1ccc2c(c1)[C@@H]1[C@H](CO2)[C@H](c2ccccc2)[C@]2(C)C(=O)NCC(=O)N12`, the activity change, negative = inhibition is reported as inconclusive: -45.7%.
In the case of `O=C(C(Sc1ccccc1)c1ccccc1)N1CCOCC1` (stereo not drawn), the activity change, negative = inhibition is reported as inactive: -27%.
For `Cc1ccc2c(c1)-c1c(ssc1=S)C(C)(C)N2C(=O)CSC1=NCCS1`, the activity change, negative = inhibition was inconclusive: -51.8%.
For `Cc1ccc2[nH]c(=O)c(CN(CC3CCCO3)C(=S)Nc3ccccc3)cc2c1` (stereo not drawn), the activity change, negative = inhibition was active: -77.8%.
In the case of `COc1ccc2c(C=O)cn(C)c2c1`, the activity change, negative = inhibition is reported as inactive: -24.3%.
In the case of `CC(=O)N1c2ccc(S(=O)(=O)NCC3CCC(C(=O)Nc4cccc(C)n4)CC3)cc2CC1C` (stereo not drawn), the activity change, negative = inhibition is reported as active: -71.2%.
In the case of `Cc1c(Cl)cccc1NC(=O)CNc1ccccc1F`, the activity change, negative = inhibition is reported as inconclusive: -51.4%.
For `CC(CSc1nc2ccccc2s1)Cn1c(N2CCCC2)nc2c1c(=O)[nH]c(=O)n2C` (stereo not drawn), the activity change, negative = inhibition was inconclusive: -47.5%.
With `CS(=O)(=O)c1ccc(C(=O)OCC(=O)N2CCCc3ccccc32)cc1` the activity change, negative = inhibition was inactive: -0.304%.
In the case of `N#CCC(=O)Nc1ccc(C(=O)N2CCN(S(=O)(=O)c3ccc4ccccc4c3)CC2)cc1`, the activity change, negative = inhibition is reported as inconclusive: -48.3%.
In the case of `Fc1cccc(Cc2c(C3CCCCC3)nc3ccc(Br)cn23)c1`, the activity change, negative = inhibition is reported as inactive: -7.18%.
With `CN(C)c1ccc(/C=C/C(=O)c2ccc3c(c2)OCCO3)cc1[N+](=O)[O-]` the activity change, negative = inhibition was inactive: -14.1%.
With `O=C(Nc1cccc([N+](=O)[O-])c1)Nc1cccc([N+](=O)[O-])c1` the activity change, negative = inhibition was inconclusive: -45.3%.
With `CC(C)C[C@H]1CN([C@@H](Cc2ccc(O)cc2)CN2CCC[C@@H]2CN2C(=O)C(=O)NC[C@@H]2Cc2ccccc2)C(=O)C(=O)N1CC1CCCCCC1` the activity change, negative = inhibition was active: -65%.
With `O=C(c1ccc(S(=O)(=O)Cc2ccccc2F)c([N+](=O)[O-])c1)N1CCCCCC1` the activity change, negative = inhibition was inconclusive: -41.8%.
For `Cc1cccc(OCC(=O)NCC(=O)N/N=C/c2ccc([N+](=O)[O-])cc2)c1`, the activity change, negative = inhibition was inconclusive: -56.8%.
For `C=CCN(c1ccccc1)S(=O)(=O)c1cccc(C(=O)Nc2ccc(N3CCOCC3)cc2)c1`, the activity change, negative = inhibition was inconclusive: -50.2%.
With `NS(=O)(=O)c1ccc(CCn2c(=S)[nH]c3ccccc3c2=O)cc1` the activity change, negative = inhibition was inconclusive: -56%.
In the case of `Cc1oc2c(c1C(=O)Nc1ccc(OC(F)(F)F)cc1)C1=NCCN1C=N2`, the activity change, negative = inhibition is reported as inactive: -1.45%.

— PubChem BioAssay AID1259415 (National Center for Advancing Translational Sciences (NCATS), 2018)
On the % scale 0 is the no-effect control and ±100 the full control effect.
